No constants are given. Whether binding was seen depends on the method and setting. Binding can be weak; no strength is given. For some assays here: Tags and fused reporters may be left off the sequences shown. For some assays here: Binding seen in cells or lysates may run through a third protein.
T1: GST-USP47 (ubiquitin-specific protease 47) (UniProt Q96K76)
T1 sequence: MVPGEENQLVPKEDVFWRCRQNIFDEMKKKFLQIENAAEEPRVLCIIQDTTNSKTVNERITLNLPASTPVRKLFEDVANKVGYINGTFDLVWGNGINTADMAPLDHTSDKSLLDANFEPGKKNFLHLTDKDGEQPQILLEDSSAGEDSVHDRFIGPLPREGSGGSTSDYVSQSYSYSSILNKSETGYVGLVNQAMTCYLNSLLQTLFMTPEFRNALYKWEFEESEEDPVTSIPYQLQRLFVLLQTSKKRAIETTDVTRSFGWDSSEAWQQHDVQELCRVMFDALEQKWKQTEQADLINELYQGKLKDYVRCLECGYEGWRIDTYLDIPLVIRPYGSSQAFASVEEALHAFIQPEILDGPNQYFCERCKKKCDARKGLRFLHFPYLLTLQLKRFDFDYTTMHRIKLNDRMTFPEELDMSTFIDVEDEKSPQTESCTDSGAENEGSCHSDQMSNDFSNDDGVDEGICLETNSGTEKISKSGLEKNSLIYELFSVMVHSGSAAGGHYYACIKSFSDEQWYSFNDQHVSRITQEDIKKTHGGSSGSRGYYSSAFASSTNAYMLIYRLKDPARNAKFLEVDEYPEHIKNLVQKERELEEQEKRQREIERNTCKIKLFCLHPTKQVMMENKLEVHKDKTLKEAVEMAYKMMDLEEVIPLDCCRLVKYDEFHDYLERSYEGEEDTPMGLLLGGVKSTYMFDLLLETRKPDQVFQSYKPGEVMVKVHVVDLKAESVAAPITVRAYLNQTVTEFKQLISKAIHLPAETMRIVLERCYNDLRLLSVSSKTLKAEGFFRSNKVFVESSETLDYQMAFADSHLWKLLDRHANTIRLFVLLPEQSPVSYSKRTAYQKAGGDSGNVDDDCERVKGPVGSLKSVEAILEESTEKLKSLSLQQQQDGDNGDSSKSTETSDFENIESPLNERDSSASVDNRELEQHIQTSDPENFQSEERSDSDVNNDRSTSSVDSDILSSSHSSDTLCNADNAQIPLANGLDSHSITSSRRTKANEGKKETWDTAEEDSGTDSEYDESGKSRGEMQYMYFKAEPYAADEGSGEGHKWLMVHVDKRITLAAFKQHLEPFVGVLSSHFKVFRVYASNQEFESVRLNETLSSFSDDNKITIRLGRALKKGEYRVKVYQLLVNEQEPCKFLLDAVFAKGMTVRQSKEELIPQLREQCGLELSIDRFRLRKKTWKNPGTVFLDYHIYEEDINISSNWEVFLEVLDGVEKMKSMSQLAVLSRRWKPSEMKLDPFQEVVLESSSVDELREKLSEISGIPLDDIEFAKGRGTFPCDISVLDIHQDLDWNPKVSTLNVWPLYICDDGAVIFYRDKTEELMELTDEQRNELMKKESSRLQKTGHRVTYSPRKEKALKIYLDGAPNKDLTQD


Columns and labels:
[1] = molecular target: T1, GST-USP47 (ubiquitin-specific protease 47); assay: pull-down; GST/GST-USP47 (5 µg) incubated with purified FLAG-MAPK at 4°C overnight; captured on glutathione agarose; Western blot; both purified
[2] = molecular target: FLAG-MAPK (mitogen-activated protein kinase); assay: co-IP; overexpression in 293T cells; 1 mg lysate protein with FLAG antibody and Protein A & G agarose, 4°C, 2-4 h; Western blot

binding [1]	binding [2]	Molecule
binds		FLAG-MAPK (mitogen-activated protein kinase) (enzyme)
	binds	USP47 (ubiquitin-specific protease 47), overexpressed in 293T cells (enzyme, UniProt Q96K76 1-1375) MVPGEENQLVPKEDVFWRCRQNIFDEMKKKFLQIENAAEEPRVLCIIQDTTNSKTVNERITLNLPASTPVRKLFEDVANKVGYINGTFDLVWGNGINTADMAPLDHTSDKSLLDANFEPGKKNFLHLTDKDGEQPQILLEDSSAGEDSVHDRFIGPLPREGSGGSTSDYVSQSYSYSSILNKSETGYVGLVNQAMTCYLNSLLQTLFMTPEFRNALYKWEFEESEEDPVTSIPYQLQRLFVLLQTSKKRAIETTDVTRSFGWDSSEAWQQHDVQELCRVMFDALEQKWKQTEQADLINELYQGKLKDYVRCLECGYEGWRIDTYLDIPLVIRPYGSSQAFASVEEALHAFIQPEILDGPNQYFCERCKKKCDARKGLRFLHFPYLLTLQLKRFDFDYTTMHRIKLNDRMTFPEELDMSTFIDVEDEKSPQTESCTDSGAENEGSCHSDQMSNDFSNDDGVDEGICLETNSGTEKISKSGLEKNSLIYELFSVMVHSGSAAGGHYYACIKSFSDEQWYSFNDQHVSRITQEDIKKTHGGSSGSRGYYSSAFASSTNAYMLIYRLKDPARNAKFLEVDEYPEHIKNLVQKERELEEQEKRQREIERNTCKIKLFCLHPTKQVMMENKLEVHKDKTLKEAVEMAYKMMDLEEVIPLDCCRLVKYDEFHDYLERSYEGEEDTPMGLLLGGVKSTYMFDLLLETRKPDQVFQSYKPGEVMVKVHVVDLKAESVAAPITVRAYLNQTVTEFKQLISKAIHLPAETMRIVLERCYNDLRLLSVSSKTLKAEGFFRSNKVFVESSETLDYQMAFADSHLWKLLDRHANTIRLFVLLPEQSPVSYSKRTAYQKAGGDSGNVDDDCERVKGPVGSLKSVEAILEESTEKLKSLSLQQQQDGDNGDSSKSTETSDFENIESPLNERDSSASVDNRELEQHIQTSDPENFQSEERSDSDVNNDRSTSSVDSDILSSSHSSDTLCNADNAQIPLANGLDSHSITSSRRTKANEGKKETWDTAEEDSGTDSEYDESGKSRGEMQYMYFKAEPYAADEGSGEGHKWLMVHVDKRITLAAFKQHLEPFVGVLSSHFKVFRVYASNQEFESVRLNETLSSFSDDNKITIRLGRALKKGEYRVKVYQLLVNEQEPCKFLLDAVFAKGMTVRQSKEELIPQLREQCGLELSIDRFRLRKKTWKNPGTVFLDYHIYEEDINISSNWEVFLEVLDGVEKMKSMSQLAVLSRRWKPSEMKLDPFQEVVLESSSVDELREKLSEISGIPLDDIEFAKGRGTFPCDISVLDIHQDLDWNPKVSTLNVWPLYICDDGAVIFYRDKTEELMELTDEQRNELMKKESSRLQKTGHRVTYSPRKEKALKIYLDGAPNKDLTQD

Source: publication PMC7819137
